This is an account of results in PMC8407544.

No constants are given. Whether binding was seen depends on the method and setting. Binding seen in cells or lysates may run through a third protein. Binding calls can cover weak binding; strength is not graded here. Where a sequence is shown, tags or fusion partners need not be part of it.

In this assay the target is T1, GFP:Orco (odour-receptor coreceptor, GFP-tagged) (Drosophila melanogaster) (UniProt Q9VNB5).
T1 sequence: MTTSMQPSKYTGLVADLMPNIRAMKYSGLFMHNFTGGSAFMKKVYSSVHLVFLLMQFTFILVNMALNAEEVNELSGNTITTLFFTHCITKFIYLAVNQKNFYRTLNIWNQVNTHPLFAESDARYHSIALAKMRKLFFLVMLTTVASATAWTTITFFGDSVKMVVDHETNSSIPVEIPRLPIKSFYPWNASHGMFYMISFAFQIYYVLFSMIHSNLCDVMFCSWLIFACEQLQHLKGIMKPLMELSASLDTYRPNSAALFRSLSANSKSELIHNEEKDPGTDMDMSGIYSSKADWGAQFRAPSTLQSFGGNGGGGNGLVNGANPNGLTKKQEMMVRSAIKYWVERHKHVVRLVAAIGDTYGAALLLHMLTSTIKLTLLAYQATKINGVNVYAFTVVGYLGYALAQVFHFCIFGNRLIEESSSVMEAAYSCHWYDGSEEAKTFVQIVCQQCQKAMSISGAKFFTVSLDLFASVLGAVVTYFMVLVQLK
Description: co-IP; agarose beads conjugated with GFP-nanobody (chromotek); head extracts of chaGal4>UAS-GFP:Orco adults; western blot. (A western blot detects proteins with antibodies after separation by electrophoresis.)

Consider “DmKAP (kinesin associated protein, accessory subunit of heterotrimeric kinesin-2)”, for which the binding result was “binds”.
